The results in this text go back to patent publication US10172825B2, “Pharmacological treatment of cognitive impairment” (priority 2006, dated 2019).

The data set deals with Ts65Dn mice. Description: Two-object based object recognition task. In kind it is in vivo, mouse. Conditions: WT and Ts65Dn mice. The text has this:
The object recognition task, a behavioral assay not requiring explicit rule learning or prolonged training, is based on the innate tendency of mice to differentially explore novel objects over familiar ones. Animals are submitted to daily handling sessions and are given an opportunity to habituate to a black acrylic, boxed enclosure, where they are exposed to two different objects during a 15-min training session. […] All are generally consistent in height and volume, and are symmetrical on a horizontal plane. They are set in two corners of the apparatus, positioned across from one another along its diameter. Subsequently, a 15-min. testing session is conducted 24 h after training. Here, the mice are presented with the object they had explored the previous day, and a new item (the objects being alternatively positioned in one corner or another in a balanced fashion).
Memory is operationally defined as the proportion of time animals spend investigating the novel object minus the proportion spent investigating the familiar one (Discrimination Index, DI=[Novel Object Exploration Time/Total Exploration Time−Familiar Object Exploration Time/Total Exploration Time]×100), where exploration constitutes any investigative behavior (i.e., head orientation, sniffing) or deliberate contact (i.e. rearing, licking) that occurs with each object. Behavioral trials are recorded by a tripod-mounted digital camera. Importantly, the object recognition task can be used repeatedly to evaluate rodent memory across time, and across various drug treatment regiments. […] Finally, all behavioral data are analyzed by Student's unpaired t tests. […]
The present experiment was carried out in a longitudinal, cross-over fashion, submitting four cohorts of WT and Ts65Dn experiment al pairs to a 4-week testing schedule. […] DI values are expressed as mean±SEM.
The animals were randomly assigned to groups receiving daily servings of chocolate milk or Metrazol (3 mg/kg), and were submitted to two repetitions of object recognition testing. […] DI values are expressed as mean±SEM.

Setting [1] is: training and testing periods, 4-week schedule (FIG. 3B).

For the compound `C1CCc2nnnn2CC1` [Metrazol, pentamethylenetetrazol], the Total object exploration result (milk or milk-MTZ, training and testing periods (FIG. 5A)) is “unaffected by genotype or by milk-MTZ treatment”.

For `CC(C)(C)[C@]1(O)C[C@@H]2OC(=O)C[C@@]23C(=O)O[C@@H]2OC(=O)[C@H](O)[C@]213` [bilobalide, Bilobalide], the Total object exploration result under setting [1] was “not influenced by genotype or by treatment regiment”.

As for Picrotoxin [PTX], the Total object exploration result under setting [1] was “not influenced by genotype or by treatment regiment”.
